Assay [1] concerns the target 3xFLAG-tagged ATG2A (3XFLAG-TEV-ATG2A) (not stated (the printed accession is a human entry)) (UniProt Q2TAZ0). Briefly: SEC; analytical SEC, Superose 6 Increase 3.2/300, 25 mM HEPES pH 8.0, 300 mM NaCl, 1 mM TCEP; 4 µM 3XFLAG-TEV-ATG2A and 4.8 µM 6XHIS-WIPI4 mixed 2 h on ice; fractions by western blot; both purified.
Assay [2] has the same target. Briefly: pull-down; FLAG trap beads coated with 3xFLAG-ATG2A, 5 µM 6xHIS-tagged prey, 1 h at room temperature, SEC300 (25 mM HEPES pH 7.5, 300 mM NaCl, 1 mM TCEP); low-salt and high-salt (500 mM NaCl wash) fractions; western blot; both purified. On the technique in general: In western blotting, separated proteins are transferred to a membrane and probed.

Sequences of proteins named here, by UniProt entry; tags and fusion partners are left off.
UniProt Q2TAZ0: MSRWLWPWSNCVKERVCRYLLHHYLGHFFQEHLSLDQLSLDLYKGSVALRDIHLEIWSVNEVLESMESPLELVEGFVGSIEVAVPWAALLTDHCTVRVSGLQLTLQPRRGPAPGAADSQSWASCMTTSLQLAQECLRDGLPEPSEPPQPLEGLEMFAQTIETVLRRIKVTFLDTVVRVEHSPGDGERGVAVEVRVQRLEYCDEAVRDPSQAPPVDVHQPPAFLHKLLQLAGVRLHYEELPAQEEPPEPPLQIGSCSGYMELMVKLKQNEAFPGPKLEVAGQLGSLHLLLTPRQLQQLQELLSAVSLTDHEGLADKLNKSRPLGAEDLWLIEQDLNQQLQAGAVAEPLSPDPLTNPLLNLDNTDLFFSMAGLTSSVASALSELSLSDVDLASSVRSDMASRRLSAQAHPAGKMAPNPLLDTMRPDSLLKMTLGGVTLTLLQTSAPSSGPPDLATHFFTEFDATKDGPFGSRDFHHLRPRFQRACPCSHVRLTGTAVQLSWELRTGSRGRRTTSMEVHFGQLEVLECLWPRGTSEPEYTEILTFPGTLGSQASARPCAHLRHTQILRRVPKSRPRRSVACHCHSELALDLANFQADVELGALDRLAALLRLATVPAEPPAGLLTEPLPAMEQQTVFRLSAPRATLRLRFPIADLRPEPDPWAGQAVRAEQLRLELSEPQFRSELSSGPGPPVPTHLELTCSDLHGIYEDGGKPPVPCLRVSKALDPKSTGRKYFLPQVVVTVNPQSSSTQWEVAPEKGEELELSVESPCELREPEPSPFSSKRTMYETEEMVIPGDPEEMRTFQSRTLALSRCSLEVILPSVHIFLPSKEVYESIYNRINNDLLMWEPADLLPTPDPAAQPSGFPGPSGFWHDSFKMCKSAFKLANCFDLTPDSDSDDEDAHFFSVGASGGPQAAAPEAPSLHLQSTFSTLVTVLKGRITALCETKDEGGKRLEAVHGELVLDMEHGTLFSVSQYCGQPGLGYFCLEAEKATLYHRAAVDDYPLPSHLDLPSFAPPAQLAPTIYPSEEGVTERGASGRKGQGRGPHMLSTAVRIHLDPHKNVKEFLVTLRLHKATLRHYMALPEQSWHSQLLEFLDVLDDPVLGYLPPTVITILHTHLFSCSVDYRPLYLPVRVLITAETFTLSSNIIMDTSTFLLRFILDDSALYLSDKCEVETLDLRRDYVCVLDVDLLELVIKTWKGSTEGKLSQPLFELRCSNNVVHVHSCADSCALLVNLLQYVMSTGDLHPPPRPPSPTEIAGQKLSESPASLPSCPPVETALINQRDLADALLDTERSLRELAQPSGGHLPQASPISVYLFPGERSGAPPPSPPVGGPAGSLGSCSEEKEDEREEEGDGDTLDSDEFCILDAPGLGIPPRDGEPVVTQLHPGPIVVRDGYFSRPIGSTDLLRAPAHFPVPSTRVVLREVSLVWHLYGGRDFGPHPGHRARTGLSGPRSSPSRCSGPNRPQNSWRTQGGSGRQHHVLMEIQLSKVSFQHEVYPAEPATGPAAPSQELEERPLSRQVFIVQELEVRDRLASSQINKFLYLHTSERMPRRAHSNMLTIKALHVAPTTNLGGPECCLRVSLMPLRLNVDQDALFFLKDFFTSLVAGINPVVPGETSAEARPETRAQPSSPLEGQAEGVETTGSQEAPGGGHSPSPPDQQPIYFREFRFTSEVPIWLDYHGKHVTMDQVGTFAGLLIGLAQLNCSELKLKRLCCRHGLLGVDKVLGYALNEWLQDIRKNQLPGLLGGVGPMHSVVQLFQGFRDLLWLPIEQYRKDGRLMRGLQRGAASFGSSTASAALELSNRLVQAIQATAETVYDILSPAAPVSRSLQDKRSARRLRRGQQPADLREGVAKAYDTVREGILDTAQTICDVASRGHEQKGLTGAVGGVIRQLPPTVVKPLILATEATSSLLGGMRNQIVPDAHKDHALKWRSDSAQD

Our source for the binding values is publication PMC13627691.

No constants are given. Whether binding was seen depends on the method and setting. Some results given as binding are weak or reduced against the parent protein; the word gives no strength. Sequences can lack the tags named with a protein.

B1: 6xHIS-tagged WIPI4 (protein, UniProt Q9Y484 1-360)
chain: MTQQPLRGVTSLRFNQDQSCFCCAMETGVRIYNVEPLMEKGHLDHEQVGSMGLVEMLHRSNLLALVGGGSSPKFSEISVLIWDDAREGKDSKEKLVLEFTFTKPVLSVRMRHDKIVIVLKNRIYVYSFPDNPRKLFEFDTRDNPKGLCDLCPSLEKQLLVFPGHKCGSLQLVDLASTKPGTSSAPFTINAHQSDIACVSLNQPGTVVASASQKGTLIRLFDTQSKEKLVELRRGTDPATLYCINFSHDSSFLCASSDKGTVHIFALKDTRLNRRSALARVGKVGPMIGQYVDSQWSLASFTVPAESACICAFGRNTSKNVNSVIAICVDGTFHKYVFTPDGNCNREAFDVYLDICDDDDF
For B1, the binding result in assay [1] and in assay [2] was “binds weakly” each time.
